These are yes or no findings as the source states them, for the method shown. Binding can be weak; no strength is given.
Molecular target: human eIF3 subunit K (eIF3-K), yeast two-hybrid fusion (human) (UniProt Q9UBQ5)
Assay: two-hybrid

Amino acid sequences for entries named in this document (tags omitted).
UniProt Q9UBQ5: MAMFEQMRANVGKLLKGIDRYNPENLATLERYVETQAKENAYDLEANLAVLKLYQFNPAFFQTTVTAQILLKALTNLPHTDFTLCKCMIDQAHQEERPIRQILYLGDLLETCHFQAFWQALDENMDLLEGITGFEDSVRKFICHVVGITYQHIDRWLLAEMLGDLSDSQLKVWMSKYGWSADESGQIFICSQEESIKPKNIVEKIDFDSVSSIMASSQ

Substance	binding
Lha0223 (VipF ortholog of Legionella hackeliae), yeast two-hybrid fusion (from UniProt A0A0A8UKD4) (enzyme)	binds
Llo3312 (VipF ortholog of Legionella longbeachae), yeast two-hybrid fusion (from UniProt D3HMS6) (enzyme)	binds

Reference: publication PMC10936415
